Test results reported in patent US20140162876A1, “Fungicidal substituted 1--1H-[1,2,4]triazole compounds” (BASF SE, priority 2011, published 2014).
Some of these results come from one statement about several compounds together.

Key:
[1] = system: Septoria tritici; assay: G3 Preventative control of leaf blotch on wheat caused by Septoria tritici (Septtr P1), green house; type: in vivo; details: 300 ppm; wheat sprayed 1 day before inoculation; untreated plants 90% infected
[2] = system: Leptosphaeria nodorum; assay: M5 Activity against wheat leaf spots caused by Leptosphaeria nodorum (Leptno), microtest; type: cell-based; details: 32 ppm; 7 days after inoculation; compound-free control = 100%
[3] = system: Botrytis cinerea; assay: M2 Activity against the grey mold Botrytis cinerea in the microtiterplate test (Botrci); type: cell-based; details: 32 ppm; 7 days after inoculation; compound-free control = 100%
[4] = system: Alternaria solani; assay: G5 Preventative fungicidal control of early blight on tomatoes (Alternaria solani) (Alteso P1), green house; type: in vivo; details: 300 ppm; tomato sprayed 1 day before inoculation; untreated plants 90% infected

## CCOC(CC)(Cn1cncn1)c1ccc(Oc2ccc(Cl)cc2)cc1Cl (stereo not shown) [Compound I-2, 1-[2-[2-chloro-4-(4-chlorophenoxy)phenyl]-2-ethoxy-butyl]-1,2,4-triazole]
[1]
  infection (% diseased leaf area), Septtr P1: less than or equal to 5%
[2]
  growth (relative growth in % of the pathogen), Leptno: ≤ 3%
[3]
  growth (relative growth in % of the pathogen), Botrci: ≤ 10%
[4]
  infection (% diseased leaf area), Alteso P1: less than or equal to 15%
